In US20230167122A1, “PESTICIDALLY ACTIVE HETEROCYCLIC DERIVATIVES WITH SULFUR CONTAINING SUBSTITUENTS” (SYNGENTA CROP PROTECTION AG, priority 2020, published 2023):
Some results were stated once for a whole list of compounds, not compound by compound.

Assays:
Heterodera schachtii = experiment: Example B13: Activity against Heterodera schachtii, juvenile mobility in vitro profiling in 96 well plate; settings: 100 ppm after 48 h; second stage juveniles
Melodoigyne incognita = experiment: Example B14: Activity against Melodoigyne incognita, juvenile mobility in vitro profiling in 96 well plate; settings: 200 ppm after 48 h; second stage juveniles

Row | SMILES | control (juvenile mobility) (Heterodera schachtii) | control (juvenile mobility) (Melodoigyne incognita)
1 | CCS(=O)(=O)c1cc(OC(C)(C)C#N)cnc1-c1cn2ncc(C(F)(F)F)cc2n1 [Compound P9, 2-[[5-ethylsulfonyl-6-[7-(trifluoromethyl)imidazo[1,2-b]pyridazin-2-yl]-3-pyridyl]oxy]-2-methyl-propanenitrile] | at least 60% | 
2 | CCS(=O)(=O)c1cc(OC(C)(C)C#N)cnc1-c1cn2ccc(C(F)(F)F)cc2n1 [Compound P8, 2-[[5-ethylsulfonyl-6-[7-(trifluoromethyl)imidazo[1,2-a]pyridin-2-yl]-3-pyridyl]oxy]-2-methyl-propanenitrile] | at least 60% | at least 60%
3 | CCn1c(C(F)(F)F)cc2nc(-c3ncc(OC(C)(C)C#N)cc3S(=O)(=O)CC)n(C)c2c1=O [Compound P6, 2-[[6-[5-ethyl-3-methyl-4-oxo-6-(trifluoromethyl)imidazo[4,5-c]pyridin-2-yl]-5-ethylsulfonyl-3-pyridyl]oxy]-2-methyl-propanenitrile] | at least 60% | 
4 | CCS(=O)(=O)c1cc(OC(C)(C)C#N)ccc1-n1cc2cnc(C(F)(F)F)cc2n1 [Compound P10, 2-[3-ethylsulfonyl-4-[6-(trifluoromethyl)pyrazolo[4,3-c]pyridin-2-yl]phenoxy]-2-methyl-propanenitrile] | at least 60% | 
5 | Cn1c(-c2ncc(OC(C)(C)C#N)cc2S(=O)(=O)CC2CC2)nc2cc(C(F)(F)F)nnc21 [Compound P1, 2-[[5-(cyclopropylmethylsulfonyl)-6-[7-methyl-3-(trifluoromethyl)imidazo[4,5-c]pyridazin-6-yl]-3-pyridyl]oxy]-2-methyl-propanenitrile] | at least 60% | 
6 | CCS(=O)(=O)c1cc(OC(C)(C)C#N)c(C)nc1-c1nc2cc(C(F)(F)F)cnc2n1C [Compound P4, 2-[[5-ethylsulfonyl-2-methyl-6-[3-methyl-6-(trifluoromethyl)imidazo[4,5-b]pyridin-2-yl]-3-pyridyl]oxy]-2-methyl-propanenitrile] | at least 60% | at least 60%
